PubChem BioAssay AID1259287 – Sanger Institute, 2017
The whole screen tested 160 reagents; below is an unselected part. 19 of them (12%) were called active. 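Viability seems capped at 1; calls apply to HCT15 cells only, not to validation across other lines.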 Entries without a mark were called inactive. Reagents against one gene are numbered here. Not given: the amount of reagent, the time to read-out.

- Aim: 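Confirm knock-downs acting together with BYL719, cetuximab or trametinib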 (follow-up of hits)
- Cell system: human HCT15 colorectal cancer cells
- Reagent: single siRNA against human genes
- Challenge: BYL719 1 µM, cetuximab 5 µg/ml or trametinib 10 nM, or DMSO vehicle
- Measured: 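Cell survival relative to non-targeting pool 2 wells, averaged across replicates, with a synergy score for each drug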
- Reading the numbers: synergy score with BYL719 and synergy score with cetuximab and synergy score with trametinib: higher = stronger combined killing than expected; viability with DMSO vehicle only: higher = more cells survive the knock-down
- Active means: 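a hit if BYL719, cetuximab or trametinib yields synergy greater than 0.10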
- Calls: active = synergy with at least one drug; inactive = no synergy with any drug

no.	gene knocked down	reagent no.	synergy score with BYL719	synergy score with cetuximab	synergy score with trametinib	viability with DMSO vehicle only (fraction of control)
1	GTF2H1	1	0.00165	0.0516	-0.069	0.945
2	GTF2H1	2	-0.0426	-0.191	-0.246	0.846
3	GTF2H1	3	-0.136	0.0675	-0.0194	1
4	GTF2H1	4	0.175 (active)	0.126	0.143	0.738
5	MAPKAPK2	1	0.0128	-0.00162	-0.0804	0.844
6	MAPKAPK2	2	-0.102	0.0189	-0.0664	0.898
7	MAPKAPK2	3	0.000567	-0.0685	-0.0365	0.912
8	MAPKAPK2	4	-0.202	-0.145	-0.152	0.888
9	PLK1	1	-0.0336	0.00101	0.00447	0.203
10	PLK1	2	-0.0863	-0.0378	-0.056	0.194
11	PLK1	3	-0.0133	-0.0687	0.0192	0.176
12	PLK1	4	-0.0745	-0.139	-0.0627	0.0611
13	PINK1	1	-0.264	-0.0588	-0.0412	0.985
14	PINK1	2	-0.152	0.0496	0.0451	0.853
15	PINK1	3	-0.0385	-0.119	-0.0293	0.504
16	PINK1	4	-0.0343	-0.155	-0.0694	0.863
17	AK2	1	-0.0979	-0.107	-0.174	0.894
18	AK2	2	-0.0173	-0.0418	-0.0253	0.923
19	AK2	3	-0.173	-0.092	-0.213	0.894
20	AK2	4	-0.101	-0.165	-0.0327	0.677
21	MAP3K8	1	-0.132	0.0243	-0.139	0.986
22	MAP3K8	2	-0.0169	-0.0581	0.00358	0.575
23	MAP3K8	3	-0.081	-0.132	-0.0702	0.874
24	MAP3K8	4	-0.0606	-0.0457	-0.0797	0.999

Just “synergy score with trametinib” (2 entries from above):
AK2 #1 = -0.174
AK2 #2 = -0.0253
